Tags and fusion partners may be left off the protein sequences shown.
Tested on: T1, Hermes transposase wild type (1-612) (Musca domestica)
T1 sequence: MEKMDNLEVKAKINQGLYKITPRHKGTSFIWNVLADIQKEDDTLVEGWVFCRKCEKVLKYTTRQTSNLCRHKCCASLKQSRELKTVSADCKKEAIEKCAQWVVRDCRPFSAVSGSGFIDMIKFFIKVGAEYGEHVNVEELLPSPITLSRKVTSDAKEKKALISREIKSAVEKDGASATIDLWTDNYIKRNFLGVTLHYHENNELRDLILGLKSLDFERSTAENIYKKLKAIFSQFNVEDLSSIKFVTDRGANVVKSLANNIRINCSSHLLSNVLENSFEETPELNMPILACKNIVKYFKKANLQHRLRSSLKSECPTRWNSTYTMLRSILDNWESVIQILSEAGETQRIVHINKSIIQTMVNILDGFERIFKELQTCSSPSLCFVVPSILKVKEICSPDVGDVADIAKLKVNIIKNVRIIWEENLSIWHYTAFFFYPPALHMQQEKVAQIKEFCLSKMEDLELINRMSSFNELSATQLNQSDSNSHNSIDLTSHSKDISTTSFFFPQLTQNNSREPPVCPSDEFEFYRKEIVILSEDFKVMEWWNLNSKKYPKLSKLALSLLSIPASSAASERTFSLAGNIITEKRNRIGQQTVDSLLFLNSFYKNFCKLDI
Assay: enzyme reaction in vitro
Conditions: 5'-phosphate on top strand; strand transfer into pUC19, 5 mM MgCl2, 0-300 mM KCl titration, 30 C; purified recombinant protein

## TCAGAGAACAACAACAAGTGGCTTATTTTGA / TCAAAATAAGCCACTTGTTGTTGTTCTCTG [Hermes pre-cleaved L-end]
  activity on this sequence: active

Source: US20170114333
